Taken from: PubChem BioAssay AID1259405 (NCATS, 2018)
The whole screen tested about 50,000 reagents; shown is a random part of them. About 4,000 of all reagents (8%) count as active. 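Mouse siRNA library applied to hamster cells; one well for each siRNA.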

Assay: 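Silenced genes that increase secreted GFP made by CHO cells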 (primary screen)
Cells: Chinese hamster CHO-K1 ovary cells with stable secreted eGFP expression
Reagent: single siRNA against mouse genes, 0.8 pmol siRNA per well (2 µl of 400 nM stock)
Timing: 3 days
Measurement: 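Per-well intracellular GFP measured by laser scanning cytometry, plus viability from ATP luminescence, each relative to plate median of non-targeting control wells, in %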
Direction: GFP, % of control: higher = more GFP per well, higher productivity; viability (ATP), % of control: higher = more viable cells (more ATP)
Call rule: 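a knock-down is called active if GFP reaches 120% or more of non-targeting control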

Abat [SID363570379] → GFP, % of control: 75.3; viability (ATP), % of control: 66.6; outcome: inactive
Abat [SID363579179] → GFP, % of control: 106; viability (ATP), % of control: 125; outcome: inactive
Abat [SID363583051] → GFP, % of control: 104; viability (ATP), % of control: 107; outcome: inactive
Creb1 [SID363555161] → GFP, % of control: 66.2; viability (ATP), % of control: 54.2; outcome: inactive
Creb1 [SID363563822] → GFP, % of control: 73.2; viability (ATP), % of control: 62.2; outcome: inactive
Creb1 [SID363587368] → GFP, % of control: 106; viability (ATP), % of control: 103; outcome: inactive
Otor [SID363541817] → GFP, % of control: 86.3; viability (ATP), % of control: 55; outcome: inactive
Otor [SID363553409] → GFP, % of control: 21.1; viability (ATP), % of control: 13.3; outcome: inactive
Otor [SID363566733] → GFP, % of control: 52.3; viability (ATP), % of control: 73.9; outcome: inactive

Only “viability (ATP), % of control”, for 2 of the entries above:
Otor [SID363541817]	55
Otor [SID363553409]	13.3

Additional results follow.
Cep15 [SID363542502] → GFP, % of control: 88.8; viability (ATP), % of control: 93.7; outcome: inactive
Cep15 [SID363551993] → GFP, % of control: 82.6; viability (ATP), % of control: 52.9; outcome: inactive
Cep15 [SID363559598] → GFP, % of control: 138; viability (ATP), % of control: 146; outcome: active
Rock2 [SID363570781] → GFP, % of control: 50.2; viability (ATP), % of control: 57.3; outcome: inactive
Plcb1 [SID363569521] → GFP, % of control: 72; viability (ATP), % of control: 85.5; outcome: inactive
Plcb1 [SID363577265] → GFP, % of control: 125; viability (ATP), % of control: 110; outcome: active
Plcb1 [SID363578673] → GFP, % of control: 88.1; viability (ATP), % of control: 62.9; outcome: inactive
Or5v1 [SID363544453] → GFP, % of control: 107; viability (ATP), % of control: 71.6; outcome: inactive
Or5v1 [SID363550781] → GFP, % of control: 69.5; viability (ATP), % of control: 79; outcome: inactive
Or5v1 [SID363557330] → GFP, % of control: 96; viability (ATP), % of control: 47.4; outcome: inactive
Or4x15 [SID363554289] → GFP, % of control: 97.7; viability (ATP), % of control: 112; outcome: inactive
Or4x15 [SID363567736] → GFP, % of control: 113; viability (ATP), % of control: 47.7; outcome: inactive
Or4x15 [SID363585093] → GFP, % of control: 71; viability (ATP), % of control: 73.4; outcome: inactive
1700009J07Rik [SID363540854] → GFP, % of control: 96.1; viability (ATP), % of control: 63.3; outcome: inactive
1700009J07Rik [SID363543305] → GFP, % of control: 43.5; viability (ATP), % of control: 54.5; outcome: inactive
1700009J07Rik [SID363552798] → GFP, % of control: 58; viability (ATP), % of control: 46.1; outcome: inactive
Snap47 [SID363553787] → GFP, % of control: 88; viability (ATP), % of control: 69.5; outcome: inactive
Snap47 [SID363561744] → GFP, % of control: 66.5; viability (ATP), % of control: 58; outcome: inactive
Snap47 [SID363565482] → GFP, % of control: 93.6; viability (ATP), % of control: 90.5; outcome: inactive
